Measured values taken from the supplement of paper PMC8256030.
“And” between values parts separate entries of the source, which are not always exact repeats. Identical values can stand only once. This is one part of the list. Repeats in this data set agree poorly, so a single value says little.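 HEK293T cells were given each compound shortly before transfection with a reporter in which red mCherry is followed by the SARS-CoV-2 frameshift element and then GFP in the −1 frame, so GFP appears only after frameshifting.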

tested on: HEK293T; assay: percent viability (nuclei count) relative to control; higher = more viable cells; conditions: 10 µM; 24 h

Row | Structure (SMILES) | percent viability
1 | COc1ccc2c3c1O[C@H]1[C@@H](O)C=C[C@H]4[C@@H](C2)N(C)CC[C@@]341 [Codeine] | 328%
2 | CCOP(=S)(OCC)Oc1ccc2c(C)c(Cl)c(=O)oc2c1 [coumafos] | 271%
3 | CN[C@@H](C)[C@H](O)c1ccccc1 [Ephedra] | 322%
4 | C[C@H](N)[C@H](O)c1ccccc1 | 221% and 177%
5 | COc1ccc2c(c1)[nH]c1c(C)nccc12 [Harmine] | 54.2%
6 | CNC(=O)Oc1cccc2ccccc12 [carbaril] | 203%

tested on: SARS-CoV-2 -1 PRF reporter mCherry-FSE-GFP(-1); assay: mCherry (red) intensity as percent of control; higher = higher upstream reporter expression; conditions: 10 µM; 24 h; HEK293T

Row | Structure (SMILES) | mCherry [%]
7 | CN[C@@H](C)[C@H](O)c1ccccc1 | 106
8 | CN[C@@H](C)[C@@H](O)c1ccccc1 [pseudoephedrine] | 93.6
9 | C[C@H](C(=O)O)c1cccc(C(=O)c2ccccc2)c1 [dexketoprofen] | 92.6
10 | Cn1c(=O)c2nc[nH]c2n(C)c1=O | 100
11 | O=C(O)c1ccccc1-c1c2ccc(=O)cc-2oc2cc(O)ccc12 | 99.3
12 | COc1cc([C@@H]2c3cc4c(cc3[C@@H](O[C@@H]3O[C@@H]5CO[C@@H](C)O[C@H]5[C@H](O)[C@H]3O)[C@H]3COC(=O)[C@H]23)OCO4)cc(OC)c1O [etoposide] | 22.1
13 | Cn1c2ncnc-2c(O)n(C)c1=O [choline theophyllinate] | 107
14 | C[C@]12CC[C@@H]3c4ccc(O)cc4CC[C@H]3[C@@H]1C[C@@H](O)[C@@H]2O | 118
15 | CC(C)CN(C[C@@H](O)[C@H](Cc1ccccc1)NC(=O)O[C@H]1CO[C@H]2OCC[C@H]21)S(=O)(=O)c1ccc(N)cc1 [darunavir] | 108
